The values that follow come from PMC11405510 (Scientific Reports, 2024).

In the assay the target is T1, Ha006a (Helicoverpa armigera, UniProt D5G3E0).
T1 sequence (D5G3E0 25-548): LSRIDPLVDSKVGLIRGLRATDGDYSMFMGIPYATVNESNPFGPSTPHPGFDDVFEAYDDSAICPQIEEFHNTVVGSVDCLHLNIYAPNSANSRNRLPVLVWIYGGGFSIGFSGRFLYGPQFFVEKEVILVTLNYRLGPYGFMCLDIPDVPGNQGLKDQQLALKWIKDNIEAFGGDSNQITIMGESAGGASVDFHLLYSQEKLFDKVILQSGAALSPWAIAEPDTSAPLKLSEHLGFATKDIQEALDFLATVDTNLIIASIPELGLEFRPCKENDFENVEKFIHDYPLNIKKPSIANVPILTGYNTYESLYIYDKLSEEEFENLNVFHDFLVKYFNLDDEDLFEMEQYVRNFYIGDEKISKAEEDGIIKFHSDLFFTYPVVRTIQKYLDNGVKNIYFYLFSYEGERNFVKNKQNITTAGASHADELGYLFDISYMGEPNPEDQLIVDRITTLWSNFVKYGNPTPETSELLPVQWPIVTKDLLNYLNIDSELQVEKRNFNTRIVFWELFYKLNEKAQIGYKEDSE
The assay is described as follows: Differential scanning calorimetry of Ha006a-ligand complexes. The assay is classed as binding. The conditions noted are these: DSC. (DSC measures the heat that a sample takes up or gives off during a temperature scan.)

`COc1cc2c(cc1OC)C(=O)C(CC1CCN(Cc3ccccc3)CC1)C2` (stereo not drawn) [Donepezil, reference compound]: where the note is “first thermal transition, 50 μM protein, non-two-state fit”, the “Tm1 (°C) ± SE” value was “Tm1 50.12 ± 0.45 °C”. Besides, the “ΔH (molar heat enthalpy)” value is, setting by setting: (first transition (Tm1)) 117000 kcal/mol; (second transition (Tm2)) 208000 kcal/mol; (third transition (Tm3)) 124000 kcal/mol. The “ΔHv (van't Hoff enthalpy)” value was 47100 kcal/mol (first transition (Tm1)), 35100 kcal/mol (second transition (Tm2)) and 35200 kcal/mol (third transition (Tm3)). In addition, the “Tm2 (°C) ± SE” value (second thermal transition) was “Tm2 63.42 ± 0.62 °C”. Moreover, the “Tm3 (°C) ± SE” value (third thermal transition) was “Tm3 82.46 ± 0.79 °C”.
